These results are taken from PubChem BioAssay AID2685 (National Center for Advancing Translational Sciences (NCATS), 2010).

The list shows a part of the results. Shown are side measurements of this screen, not its main read-out; they come without a call. Most of these compounds were active or inconclusive in the main read-out, so they are no random draw. Words in brackets tell the shape of the fitted curve; partial curves, single points and poor fits give uncertain potencies.

This test is described as follows: qHTS Assay for Lipid Storage Modulators in Drosophila S3 Cells.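 For cell number change: cells counted by Cell Tracker Red CMTPX staining in the red channel.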 Particulars: BODIPY lipid droplet fluorescence, 18-24 h; for cell number change: measured here: cell count max response, cells fed with added oleic acid. The method in brief: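 Drosophila S3 cells got compounds at several concentrations plus oleic acid (400 uM solution). Laser-scanning cytometry with 488 nm excitation read lipid droplets at 500-530 nm and cells at 575-640 nm. Percent activity was relative to 20 uM Triacsin C.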
A general note: Quantitative high-throughput screening tests each substance at several concentrations.

Setting [1] is: measured here: cell number channel AC50, cells fed with added oleic acid.
The mark [2] stands for this setting: measured here: lipid fluorescence (Fed channel) AC50, cells fed with added oleic acid.

`CC(c1ccccc1)N1CC(C(=O)N2CCN(Cc3ccc(C#N)cc3)CC2)CC1=O` (centres undefined): the cell number change is 22.5%.
As a reminder, the AC50 is the concentration giving half of the maximal activity seen. Read a low AC50 as greater potency. On to `CCc1ccc(S(=O)(=O)Nc2cc3c(cc2N2CCOCC2)n(C)c(=O)c(=O)n3C)cc1`, for which the cell number change is -72.1%. Besides, under setting [1], the AC50 is 29.1 µM [falling, single point].
Take `COCCCN(C(=S)Nc1cc(C)cc(C)c1)C(C)c1ccncc1` (centres undefined): the cell number change was 2.82%.
Turning to `CC(Sc1nc(N)cc(=O)[nH]1)C(=O)NNC(=O)c1cccc(Cl)c1` (centres undefined), the cell number change was -7.46%. Also, the AC50 under setting [2] is 8.2 µM [rising, partial curve].
On to `COc1cccc(/C=C2\SC(=S)N(CCC(=O)N3CCCCC3)C2=O)c1`, for which the cell number change was 34.2%. Further, the AC50 under setting [1] was 29.1 µM [rising, single point].
With `Cc1c(NC(=O)COC(=O)CCC(=O)c2ccc(Cl)cc2)c(=O)n(-c2ccccc2)n1C`, the cell number change was determined as 17%.
Turning to `CCOc1ccc(-n2c(SCc3cc(=O)oc4cc(C)ccc34)nnc2-c2cccnc2)cc1`, the cell number change was -1.35%. Under setting [2], the AC50 is 6.51 µM [rising, single point].
With `Cc1ccccc1-c1cc(C(=O)NCc2ccco2)n(CC2CC(c3cccnc3)=NO2)n1` (centres undefined), the cell number change was -30.7%. In addition, under setting [1], the AC50 is 29.1 µM [falling, single point].
In the case of `O=C(Nc1ccc(OC(F)(F)F)cc1)C1CCCCN1S(=O)(=O)c1ccccc1` (centres undefined), the cell number change stood at 120%. Also, the AC50 under setting [1] is 16.4 µM [rising, single point].
In the case of `COc1c(C)cc(Br)cc1C(=O)Nc1cccc(-c2nc3ncccc3o2)c1`, under setting [2], the concentration at half-maximal activity (AC50) was 1.16 µM [falling, partial curve].
Regarding `Clc1nc2c(ccc3ccccc32)[nH]1`, the cell number change amounted to 12.1%.
Still for that read-out and setting: the same measure for `O=C(CSc1nc2ccccc2c(=O)n1Cc1ccc(Cl)cc1)NCc1cccs1`: -2.32%.
`CCCOC(=O)C(C)Sc1n[nH]c(=O)[nH]c1=O` (centres undefined): the AC50 under setting [2] is 0.0231 µM [rising, full curve, poor fit].
Regarding `C#CCN1C(=O)C(O)(CC(=O)c2cc(OC)ccc2OC)c2ccccc21` (centres undefined), the cell number change was found to be 14.7%. The concentration at half-maximal activity (AC50) under setting [2] was 0.731 µM [rising, full curve].
On to `COCCCn1c(Cc2csc(Nc3ccc(F)cc3)n2)nnc1SCC(N)=O`, for which the cell number change is -1.75%. Besides, the AC50 under setting [2] is 29.1 µM [rising, single point].
As to `CC(C)CNC(C)C(=O)Nc1ccc(S(N)(=O)=O)cc1` (centres undefined), the cell number change is -11.1%.
For the compound `Nc1ncnc2c1ncn2CCOc1ccccc1`, the cell number change came out at 7.54%. Further, the AC50 under setting [2] is 2.06 µM [rising, full curve].
For `CCOC(=O)c1csc(NC(=O)Nc2cccc(Cl)c2)n1`, the cell number change was -50%. For the same compound, the concentration at half-maximal activity (AC50) under setting [1] is 29.1 µM [falling, single point].
Turning to `CC(C)(C)c1ccc(C(=O)OCC(=O)N2CCC(c3ccccc3)=N2)cc1`, the cell number change stood at 13%. The AC50 under setting [2] was 29.1 µM [rising, single point].
Regarding `COCCn1nnnc1C(c1ccc(C)cc1)N1CCN(Cc2ccc3c(c2)OCO3)CC1` (centres undefined), the cell number change was -0.908%.
Take `COc1cc(SC)ccc1C(=O)OCC(=O)NCCC1=CCCCC1`: the cell number change was -12.2%. For the same compound, the AC50 under setting [2] is 16.4 µM [falling, partial curve].
Regarding `CCCc1nc(N)nc2c1C(=O)CC(C)(C)C2`, the cell number change was 8.98%. The AC50 under setting [2] is 6.51 µM [rising, single point].
As for `O=C(CSc1ccc2c(c1)OCCO2)NCC1CCCO1` (centres undefined), the cell number change came to 11.2%. Under setting [1], the AC50 is 0.146 µM [rising, full curve, poor fit].
Regarding `C[C@H](NC(=O)c1nc[nH]c1C(=O)NCC(=O)OCc1ccccc1)C(=O)OCc1ccccc1`, the cell number change is -1.5%.
Turning to `COc1ccccc1CCNC(=O)C(=O)c1cn(CC(=O)N2CCCC2)c2ccccc12`, the cell number change was -17.3%. Further, under setting [2], the AC50 is 15.8 µM [falling, single point].
On to `O=C1NC(=O)C2(COC3(CCCC3)OC2)S1`, for which the cell number change is -36.1%. Also, under setting [1], the concentration at half-maximal activity (AC50) is 0.231 µM [falling, full curve]. For the same compound, the AC50 under setting [2] was 2.06 µM [falling, full curve].
Turning to `COC(=O)c1[nH]c2cccc(OC)c2c1NC(=O)CN1CC2(C)CC1CC(C)(C)C2` (centres undefined), the AC50 reads like this: under setting [1], 6.51 µM [falling, single point]; under setting [2], 6.51 µM [falling, partial curve].
`Cc1cc(C)nc(SCCCn2c(=O)[nH]c3ccccc32)n1`: the cell number change is -30.9%. For the same compound, the AC50 under setting [2] was 0.00411 µM [falling, full curve, poor fit].
On to `O=C(CN1CCC(n2nnc3ccccc32)CC1)NCc1cccs1`, for which the cell number change came out at 0.794%.
Consider `COc1cc(/C=N/NC(=O)c2ccc(CN(C)S(=O)(=O)c3ccc(C)cc3)cc2)ccc1O`, for which the cell number change was -47.4%. For the same compound, the half-maximal activity concentration (AC50) under setting [1] is 23.1 µM [falling, single point]. In addition, the AC50 under setting [2] was 3.66 µM [falling, full curve].
With `CCOc1ccc(N=C2NC(=O)CS2)cc1`, the cell number change came out at 18.6%. The AC50 under setting [2] is 29.1 µM [rising, single point].
As to `CNC(=O)c1[nH]cnc1C(=O)Nc1ccc(F)cc1`, the cell number change stood at 16.9%. Besides, under setting [2], the AC50 was 9.2 µM [rising, partial curve, poor fit].
As to `CCCCCN(C(=O)NC(=O)NC(C)CC)S(C)(=O)=O` (centres undefined), the cell number change amounted to 11.2%.
Turning to `CCOC(=O)c1c(NC(=O)CSc2nc3ccccc3s2)sc(C(C)=O)c1C`, the cell number change was -14.5%. Besides, the AC50 under setting [2] was 18.4 µM [falling, single point].
For `CC(C)(C)NC(=O)CSc1nncn1NCc1ccccc1`, the cell number change was -14.5%. The AC50 under setting [1] was 0.82 µM [falling, full curve]. Further, the AC50 under setting [2] was 0.651 µM [falling, full curve, poor fit].
Regarding `CC(C)CC(OC(=O)c1ccco1)C(=O)NCC1CCCO1` (centres undefined), the cell number change was -0.204%. In addition, under setting [2], the concentration at half-maximal activity (AC50) is 14.6 µM [rising, partial curve, poor fit].
In the case of `O=C(CN1CCC(c2nc3ccccc3s2)CC1)N1CCCCC1`, the cell number change is -27.5%. For the same compound, under setting [2], the half-maximal activity concentration (AC50) is 1.46 µM [falling, partial curve, poor fit].
For the compound `COC(=O)c1ccc2c(c1)N(Cc1nc(-c3cccc(C)c3)oc1C)C(=O)C1CCCN21` (centres undefined), the AC50 under setting [2] was 9.2 µM [rising, single point].
As for `Cc1ccc(O)c(NC(=O)c2cc(-c3ccccc3Cl)on2)c1`, the cell number change is -46.3%. In addition, under setting [1], the AC50 was 13 µM [falling, partial curve, poor fit].
As for `Cc1c(C(=O)Nc2ccccn2)oc2ccc(Br)cc12`, the cell number change was -1.12%.
In the case of `CCCCC(=O)Nc1cccc(C(=O)N/N=C/c2ccc(OC)cc2OC)c1`, the cell number change is 44.5%. The half-maximal activity concentration (AC50) under setting [1] was 7.31 µM [rising, partial curve]. Moreover, the AC50 under setting [2] was 3.26 µM [rising, single point].
Regarding `CCCCn1nnnc1SCC(=O)N1CCN(C(=O)c2ccco2)CC1`, the cell number change was -3.57%. The AC50 under setting [2] is 0.259 µM [falling, full curve, poor fit].
